Measurements taken from publication PMC6872557.
These are yes or no findings as the source states them, for the method shown. Binding seen in cells or lysates may run through a third protein. Some entries that bind do so weakly or less than the wild type. For some assays here: Where a sequence is shown, tags or fusion partners need not be part of it.

By UniProt entry, the sequences of proteins in these tests, tags left out.
UniProt P84022: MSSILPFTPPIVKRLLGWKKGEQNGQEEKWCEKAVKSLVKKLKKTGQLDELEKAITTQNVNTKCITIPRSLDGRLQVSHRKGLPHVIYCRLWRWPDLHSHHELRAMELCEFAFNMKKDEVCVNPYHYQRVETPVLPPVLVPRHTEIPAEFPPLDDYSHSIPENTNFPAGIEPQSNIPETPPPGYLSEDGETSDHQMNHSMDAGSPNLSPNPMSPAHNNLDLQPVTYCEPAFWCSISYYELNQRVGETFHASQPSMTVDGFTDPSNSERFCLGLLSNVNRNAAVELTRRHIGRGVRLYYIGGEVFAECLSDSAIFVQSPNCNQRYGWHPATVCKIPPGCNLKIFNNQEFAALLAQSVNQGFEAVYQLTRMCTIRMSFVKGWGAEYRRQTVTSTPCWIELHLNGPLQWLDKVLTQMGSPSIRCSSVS
UniProt Q13485: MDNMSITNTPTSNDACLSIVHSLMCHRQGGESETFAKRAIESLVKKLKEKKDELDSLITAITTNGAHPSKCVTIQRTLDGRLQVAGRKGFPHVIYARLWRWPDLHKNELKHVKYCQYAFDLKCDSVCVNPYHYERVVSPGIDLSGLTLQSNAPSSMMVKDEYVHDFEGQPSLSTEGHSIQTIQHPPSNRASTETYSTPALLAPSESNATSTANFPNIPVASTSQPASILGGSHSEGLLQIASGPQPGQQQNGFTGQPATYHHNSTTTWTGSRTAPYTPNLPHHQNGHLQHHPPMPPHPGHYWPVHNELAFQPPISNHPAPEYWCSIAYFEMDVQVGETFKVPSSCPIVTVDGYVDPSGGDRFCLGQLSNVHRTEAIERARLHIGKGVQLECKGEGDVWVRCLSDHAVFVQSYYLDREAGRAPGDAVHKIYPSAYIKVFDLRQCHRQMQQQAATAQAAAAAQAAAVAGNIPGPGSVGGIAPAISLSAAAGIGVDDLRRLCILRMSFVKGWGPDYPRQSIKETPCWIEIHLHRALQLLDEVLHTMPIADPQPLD
UniProt Q13547: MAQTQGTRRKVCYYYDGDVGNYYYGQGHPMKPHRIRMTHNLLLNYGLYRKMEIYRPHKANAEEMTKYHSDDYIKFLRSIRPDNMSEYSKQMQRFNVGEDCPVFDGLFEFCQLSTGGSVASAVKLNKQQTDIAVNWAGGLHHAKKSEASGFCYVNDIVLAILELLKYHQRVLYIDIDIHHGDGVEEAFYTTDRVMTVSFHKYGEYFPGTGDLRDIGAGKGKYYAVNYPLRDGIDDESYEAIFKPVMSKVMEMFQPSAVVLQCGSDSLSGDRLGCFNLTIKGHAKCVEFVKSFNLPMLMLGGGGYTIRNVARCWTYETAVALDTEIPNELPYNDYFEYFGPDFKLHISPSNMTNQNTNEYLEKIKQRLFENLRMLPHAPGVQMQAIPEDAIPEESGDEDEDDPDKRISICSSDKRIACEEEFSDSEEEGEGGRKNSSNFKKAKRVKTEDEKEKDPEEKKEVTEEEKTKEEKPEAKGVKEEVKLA

Legend:
[1] = target: RUNX1 (Runt-related transcription factor 1) (human (endogenous in U251, N9)) (UniProt Q01196); assay: co-IP; Fig. S9a: co-IP of RUNX1 with five partners taken from a STRING network, 'in vivo'; cells, bait and antibodies not shown; general method: Western and IP lysis buffer, antibody and protein-A/G PLUS agarose at 4 °C overnight, three washes with RIPA, western blot
[2] = target: T1, Flag-SUV39H1 (UniProt O43463); assay: co-IP; Fig. 2b-e: U251 cells overexpressing Flag-RUNX1, Flag-SMAD3 or Flag-SUV39H1 with TGFβ protein for 4 h or 8 h; N9 cells overexpressing the same with LY2109761 for 24 h or 48 h; Western and IP lysis buffer, antibody and protein-A/G PLUS agarose at 4 °C overnight, three washes with RIPA, western blot
T1 sequence: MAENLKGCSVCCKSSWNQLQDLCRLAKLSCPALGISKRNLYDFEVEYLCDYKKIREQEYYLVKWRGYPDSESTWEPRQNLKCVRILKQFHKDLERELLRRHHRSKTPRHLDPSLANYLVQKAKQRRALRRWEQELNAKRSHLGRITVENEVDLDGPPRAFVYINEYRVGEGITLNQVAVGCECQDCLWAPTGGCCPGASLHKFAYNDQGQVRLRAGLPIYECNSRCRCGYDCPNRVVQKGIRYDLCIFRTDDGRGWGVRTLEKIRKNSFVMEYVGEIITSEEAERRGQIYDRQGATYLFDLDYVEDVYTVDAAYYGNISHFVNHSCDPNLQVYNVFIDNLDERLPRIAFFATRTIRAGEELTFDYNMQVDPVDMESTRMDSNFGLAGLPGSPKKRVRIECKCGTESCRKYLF

[3] = target: Flag-SMAD3 (UniProt P84022); assay: as above
[4] = target: Flag-RUNX1 (Runt-Related Transcription Factor 1) (UniProt Q01196); assay: as above
[5] = target: T2, SUV39H1 (human (endogenous in U251, N9)) (UniProt O43463); assay: co-IP; Fig. S9d: co-IP of p-SMAD3 and SUV39H1; cells and bait not shown; general method: Western and IP lysis buffer, antibody and protein-A/G PLUS agarose at 4 °C overnight, three washes with RIPA, western blot
T2 sequence: T1 sequence

Row | Substance | binding [1] | binding [4] | further results
1 | RUNX1 (Runt-related transcription factor 1) (from UniProt Q01196 1-453) | – | – | binding [2]: binds; binding [3]: binds
2 | SMAD4 (from UniProt Q13485 1-552) | binds | – | –

Further lines, with some results ahead:

Row | binding [1] | binding [4] | Substance | further results
3 | binds | – | HDAC1 (from UniProt Q13547 1-482) | –
4 | binds | binds | SMAD3 (from UniProt P84022 1-425) | –
5 | – | binds | p-SMAD3 (phosphorylated SMAD3) (from UniProt P84022 1-425) | binding [5]: binds
